The numbers were not newly measured in patent publication US4609675A, “Stable, high dose, high bulk density ibuprofen granulations for tablet and capsule manufacturing” (priority 1984, dated 1986), which cites them from elsewhere.

The structures appear in SMILES notation.

For the data set the following is noted: in words.

Regarding `CC(C)Cc1ccc(C(C)C(=O)O)cc1` (stereo not shown) [Ibuprofen, 2-(4-isobutylphenyl)-propionic acid], the water solubility result is given as “poorly water soluble”.
